These results are taken from PMC4726551.

The target in this test is T1, NTAP-Zfrp8 (UAS-TAP-Zfrp8 expressed in Drosophila ovaries) (Drosophila) (UniProt Q9W1A3).
T1 sequence: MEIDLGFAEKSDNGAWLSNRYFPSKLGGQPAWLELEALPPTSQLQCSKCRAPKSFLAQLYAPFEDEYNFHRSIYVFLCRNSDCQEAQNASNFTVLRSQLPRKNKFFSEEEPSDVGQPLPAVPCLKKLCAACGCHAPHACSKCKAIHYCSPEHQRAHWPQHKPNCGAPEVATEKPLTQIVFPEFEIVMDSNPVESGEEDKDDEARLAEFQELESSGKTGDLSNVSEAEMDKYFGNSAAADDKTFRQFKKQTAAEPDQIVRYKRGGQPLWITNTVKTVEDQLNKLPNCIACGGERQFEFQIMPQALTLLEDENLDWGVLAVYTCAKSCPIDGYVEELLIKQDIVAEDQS
The experiment in a line: TAP affinity purification with Western blot; one-step purification of TAP-Zfrp8 from Drosophila ovary extracts on Streptavidin Plus beads (IgG agarose and TEV steps skipped); blot with anti-Zfrp8 and anti-RpS2; w118 extract as negative control. (In western blotting, separated proteins are transferred to a membrane and probed.)

No constants are given. Whether binding was seen depends on the method and setting. Some binding calls cover weakened binding; strength is not graded here.

On to “RpS2 (endogenous, Drosophila ovaries) (from UniProt P31009 1-267)”, for which the binding result is given as “binds”.
